Experimental data: US9962360B2, “Compositions and methods for enhancing hair growth, promoting skin regeneration, and wound healing” (The Hospital for Sick Children, priority 2014, dated 2018)

Tested on: SKPs
Test: Microarray and GO enrichment analysis of SKPs acutely treated for 24 hours
Settings: SKPs treated for 24 hours

Molecule	number of differentially expressed genes, control versus treated
CCCCC[C@H](O)/C=C/[C@H]1[C@H](O)CC(=O)[C@@H]1CCCCCCC(=O)O [Alp, alprostadil]	457 genes
trimebutine maleate [TM]	545 genes
